Test: Fragrance Fidelity Index (FFI), expert grader ranking of odor strength of treated fabric swatch against ethyl vanillin reference swatches
Conditions: 13 μL on clean swatch, scale 0 to 3

CC(CCO)CCc1ccccc1 (stereo not drawn) [Material 962]
FFI (test material Conc 10 ppm): 0
FFI (test material Conc 50 ppm): 0.5

CC1(C)C2CCC3(C2)C1C(=O)CCC3(C)C (stereo not drawn) [Material 1149]
FFI (test material Conc 10 ppm): 0
FFI (test material Conc 50 ppm): 0.8

CC(=O)OCCCCCCC(C)C [Material 204]
FFI (test material Conc 10 ppm): 0
FFI (test material Conc 50 ppm): 0

CCOC(=O)OC1C(C)CCC(C)C1C (stereo not drawn) [Material 1005]
FFI (test material Conc 50 ppm): 0.5

C=CC(C)=CCC=C(C)C [Material 524]
FFI (test material Conc 50 ppm): 0

CCCCCCCCCCCC(=O)OCC [Material 391]
FFI (test material Conc 50 ppm): 0.3

CCC(O)COC1CCCCC1C(C)(C)C (stereo not drawn) [Material 677]
FFI (test material Conc 10 ppm): 0
FFI (test material Conc 50 ppm): 1.8

CC(=O)OC1CC2CC1C1CC=CC21 (stereo not drawn) [Material 281]
FFI (test material Conc 10 ppm): 0
FFI (test material Conc 50 ppm): 0.5

COC(=O)OC1CC/C=C\CCC1 (stereo not drawn) [Material 1139]
FFI (test material Conc 10 ppm): 0
FFI (test material Conc 50 ppm): 1.0

O=C1CCC2CCCCC2O1 (stereo not drawn) [3,4,4a,5,6,7,8,8a-octahydrochromen-2-one]
FFI (test material Conc 10 ppm): 0
FFI (test material Conc 50 ppm): 0

CC1(C)CCc2ccc(CCC=O)cc21 [Material 261]
FFI (test material Conc 10 ppm): 0
FFI (test material Conc 50 ppm): 1.3

CC(C)(C)C1CCCCC1 [4-tert-butyl cyclohexane]
FFI (test material Conc 10 ppm): 0
FFI (test material Conc 50 ppm): 0.3

C=C1CCC2OC2(C)CCC2C1CC2(C)C (stereo not drawn) [Material 1148]
FFI (test material Conc 50 ppm): 0.5

CCCCCCCCCCCO [Undecanol]
FFI (test material Conc 50 ppm): 0.8

CCCCCCCCCCCCO [Material 174]
FFI (test material Conc 50 ppm): 0.5

— patent US11334695B2, “Antiperspirant and deodorant compositions comprising malodor reduction compositions” (The Procter & Gamble Company, priority 2014, dated 2022)
